Source: paper PMC8770984
Results are given in words; binding and its absence hold for the method and conditions named. In cells and extracts the contact can be indirect. Some results given as binding are weak or reduced against the parent protein; the word gives no strength.

By UniProt entry, the sequences of proteins in these tests, tags left out.
UniProt Q60636: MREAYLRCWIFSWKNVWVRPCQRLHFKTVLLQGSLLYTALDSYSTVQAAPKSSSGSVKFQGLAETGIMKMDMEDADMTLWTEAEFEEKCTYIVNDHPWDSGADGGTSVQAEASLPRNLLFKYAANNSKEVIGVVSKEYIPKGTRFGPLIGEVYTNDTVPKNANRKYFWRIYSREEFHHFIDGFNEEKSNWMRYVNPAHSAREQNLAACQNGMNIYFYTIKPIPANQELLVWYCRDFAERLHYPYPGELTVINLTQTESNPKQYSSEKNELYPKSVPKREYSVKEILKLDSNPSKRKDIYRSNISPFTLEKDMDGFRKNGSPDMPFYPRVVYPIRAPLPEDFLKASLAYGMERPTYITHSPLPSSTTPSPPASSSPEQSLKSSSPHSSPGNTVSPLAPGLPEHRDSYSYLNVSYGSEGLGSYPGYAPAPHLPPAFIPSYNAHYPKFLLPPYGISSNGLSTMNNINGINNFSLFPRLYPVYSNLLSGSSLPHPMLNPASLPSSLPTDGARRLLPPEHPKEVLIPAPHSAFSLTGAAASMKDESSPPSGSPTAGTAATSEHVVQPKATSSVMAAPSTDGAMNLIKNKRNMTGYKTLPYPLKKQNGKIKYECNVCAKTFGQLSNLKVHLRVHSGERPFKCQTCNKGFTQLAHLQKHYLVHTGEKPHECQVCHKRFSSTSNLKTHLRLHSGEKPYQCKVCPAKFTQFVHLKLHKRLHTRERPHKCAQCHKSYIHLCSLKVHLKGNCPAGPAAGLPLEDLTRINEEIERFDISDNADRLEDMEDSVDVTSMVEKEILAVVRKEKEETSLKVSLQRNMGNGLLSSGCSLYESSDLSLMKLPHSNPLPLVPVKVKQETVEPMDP

Molecular target: T1, NFATc1 (endogenous, murine primary tTreg cells) (mouse (endogenous in murine primary Treg cells)) (UniProt O88942)
T1 sequence: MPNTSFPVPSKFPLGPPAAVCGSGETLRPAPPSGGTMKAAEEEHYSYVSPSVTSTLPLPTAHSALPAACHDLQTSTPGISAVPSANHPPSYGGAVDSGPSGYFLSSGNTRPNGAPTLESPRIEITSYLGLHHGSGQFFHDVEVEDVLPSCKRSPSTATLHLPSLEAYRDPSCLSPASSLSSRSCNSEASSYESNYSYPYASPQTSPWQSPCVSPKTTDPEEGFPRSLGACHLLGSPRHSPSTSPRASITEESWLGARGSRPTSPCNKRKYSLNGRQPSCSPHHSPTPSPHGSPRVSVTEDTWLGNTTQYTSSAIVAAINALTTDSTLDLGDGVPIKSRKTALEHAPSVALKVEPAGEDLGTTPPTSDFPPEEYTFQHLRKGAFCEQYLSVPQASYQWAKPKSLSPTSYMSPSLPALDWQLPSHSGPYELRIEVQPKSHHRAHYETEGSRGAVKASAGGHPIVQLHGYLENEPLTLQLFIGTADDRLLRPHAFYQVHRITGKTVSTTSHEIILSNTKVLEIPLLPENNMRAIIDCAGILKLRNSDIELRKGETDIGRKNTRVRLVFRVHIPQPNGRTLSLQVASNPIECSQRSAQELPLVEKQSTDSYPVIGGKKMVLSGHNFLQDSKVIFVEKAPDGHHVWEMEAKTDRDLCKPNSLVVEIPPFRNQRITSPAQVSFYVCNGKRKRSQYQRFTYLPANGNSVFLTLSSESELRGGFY
Experiment: co-IP; nuclear protein extracts of murine primary tTreg cells activated and expanded with anti-CD3/CD28 beads for 7 days; Nuclear Complex Co-IP Kit, anti-Blimp-1 (C14A4) and anti-NFATc1 (7A6) antibodies

binding: binds
Substance: Blimp-1 (endogenous, murine primary tTreg cells) (from UniProt Q60636 1-856)
